This is an account of results in the supplement of paper PMC12024529.

Structures can show the parent of a compound that is named as a salt. This is one part of the list. Baselines shift from plate to plate; read single values as rough.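 HEK293 lines stably express B-domain-deleted factor VIII fused to Gaussia luciferase, wild type or a misfolding-prone missense mutant. Scores equal triplicate-well mean luminescence minus DMSO mean, divided by DMSO standard deviation; scores of 2 or higher are hits. Low scores may indicate reduced secretion or worse cell viability.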

This test has as its system HEK293 WT BDD-FVIII-Gluc. As to the kind of experiment: secreted FVIII-Gluc luciferase Z-score vs DMSO control; higher = more FVIII-Gluc secretion. The settings on record: 5 µM; 24 h.
For `OCCN1C[C@H](O)[C@@H](O)[C@H](O)[C@H]1CO` [Miglitol (Glyset)], the “secreted FVIII-Gluc luciferase Z-score” value is inactive: -2.85.
To `CC1(C)S[C@@H]2[C@H](NC(=O)[C@H](NC(=O)N3CCNC3=O)c3ccccc3)C(=O)N2[C@H]1C(=O)O` [Azlocillin sodium salt] belongs inactive: -1.31; to `CN(CCOc1ccc(CC2SC(=O)NC2=O)cc1)c1ccccn1` (centres undefined) [Rosiglitazone HCl], inactive: 1.01; to `CC1(C)[C@H](C(=O)O)N2C(=O)C[C@H]2S1(=O)=O` [Sulbactam], inactive: -0.0819.
Under `C#Cc1cccc(Nc2ncnc3cc(OCCOC)c(OCCO)cc23)c1` [OSI-420 (Desmethyl Erlotinib)] stands inactive: -2.88; under `O=C(OCC(O)CO)c1ccccc1Nc1ccnc2cc(Cl)ccc12` (centres undefined) [Glafenine HCl], inactive: -0.279; under `O=C(C[S+]([O-])Cc1ccco1)NC/C=C\COc1cc(CN2CCCCC2)ccn1` (centres undefined) [Lafutidine], inactive: 0.877.
Regarding `Nc1nc(N)nc(-c2cc(Cl)ccc2Cl)n1` [Irsogladine], the “secreted FVIII-Gluc luciferase Z-score” value is inactive: -2.31.
`Clc1ccccc1C(c1ccccc1)(c1ccccc1)n1ccnc1` [Clotrimazole (Canesten)]: the “secreted FVIII-Gluc luciferase Z-score” value was inactive: -1.93.
On to `O=C(CCCCCCC(=O)Nc1ccccc1)NO` [Vorinostat (SAHA)], for which the “secreted FVIII-Gluc luciferase Z-score” value is active: 4.92.
Turning to `CN(C)CCc1c[nH]c2ccc(CS(=O)(=O)N3CCCC3)cc12` [Almotriptan malate (Axert)], the “secreted FVIII-Gluc luciferase Z-score” value is inactive: -0.664.
Turning to `CC(=O)S[C@@H]1CC2=CC(=O)CC[C@]2(C)[C@H]2CC[C@@]3(C)[C@@H](CC[C@@]34CCC(=O)O4)[C@H]12` [Spironolactone], the “secreted FVIII-Gluc luciferase Z-score” value was inactive: -1.6.
In the case of `COc1cc(NS(=O)(=O)c2ccc(N)cc2)nc(OC)n1` [Sulphadimethoxine], the “secreted FVIII-Gluc luciferase Z-score” value is inactive: -2.07.
Turning to `O=c1c(-c2ccc(O)cc2)coc2cc(O)cc(O)c12` [Genistein], the “secreted FVIII-Gluc luciferase Z-score” value is inactive: -3.43.
For the molecule `O=C1NCC2(CCN(CCc3ccccc3)CC2)O1` [Fenspiride HCl], the “secreted FVIII-Gluc luciferase Z-score” value is active: 8.29.
For `CCC(C)(C)C(=O)O[C@H]1C[C@@H](C)C=C2C=C[C@H](C)[C@H](CC[C@@H]3C[C@@H](O)CC(=O)O3)[C@H]21` [Simvastatin (Zocor)], the “secreted FVIII-Gluc luciferase Z-score” value is inactive: -2.56.
Regarding `COc1c(N2C[C@@H]3CCCN[C@@H]3C2)c(F)cc2c(=O)c(C(=O)O)cn(C3CC3)c12` [Moxifloxacin hydrochloride], the “secreted FVIII-Gluc luciferase Z-score” value was inactive: -4.91.
For the molecule `Oc1c(Br)cc(Br)c2cccnc12` [Broxyquinoline], the “secreted FVIII-Gluc luciferase Z-score” value was inactive: 1.31.
With `CC1(C)S[C@@H]2[C@H](NC(=O)[C@H](N)c3ccc(O)cc3)C(=O)N2[C@H]1C(=O)O` [Amoxicillin (Amoxycillin)], the “secreted FVIII-Gluc luciferase Z-score” value is active: 2.24.
For `Cc1cc(C2CCCCC2)n(O)c(=O)c1` [Ciclopirox ethanolamine], the “secreted FVIII-Gluc luciferase Z-score” value was inactive: -7.25.
Take `O=C(O)C(=O)O.[NH-]C1CCCCC1[NH-].[Pt+2]` (centres undefined) [Oxaliplatin (Eloxatin)]: the “secreted FVIII-Gluc luciferase Z-score” value was inactive: -3.36.
As for `N=C(N)NS(=O)(=O)c1ccc(N)cc1` [Sulfaguanidine], the “secreted FVIII-Gluc luciferase Z-score” value is inactive: 1.67.
Consider `C[C@H](CCC(=O)O)[C@H]1CC[C@H]2[C@@H]3CC[C@@H]4C[C@H](O)CC[C@]4(C)[C@H]3CC[C@]12C` [Lithocholic acid], for which the “secreted FVIII-Gluc luciferase Z-score” value was inactive: -0.183.
As for `CC[C@@H]([C@H](C)O)n1ncn(-c2ccc(N3CCN(c4ccc(OC[C@@H]5CO[C@@](Cn6cncn6)(c6ccc(F)cc6F)C5)cc4)CC3)cc2)c1=O` [Posaconazole], the “secreted FVIII-Gluc luciferase Z-score” value is inactive: -1.7.
Consider `CN1[C@@H]2CC[C@H]1C[C@@H](OC(=O)c1c[nH]c3ccccc13)C2` [Tropisetron], for which the “secreted FVIII-Gluc luciferase Z-score” value is inactive: -2.38.
As to `COC(=O)C1=C(C)NC(C)=C(C(=O)OCCN(C)Cc2ccccc2)C1c1cccc([N+](=O)[O-])c1` (centres undefined) [Nicardipine HCl], the “secreted FVIII-Gluc luciferase Z-score” value is inactive: -0.0466.
As for `O=C1NC(=O)C(c2ccccc2)(c2ccccc2)N1` [Phenytoin (Lepitoin)], the “secreted FVIII-Gluc luciferase Z-score” value is inactive: -1.73.
On to `CC(=O)O[C@]1(C(C)=O)CC[C@H]2[C@@H]3C[C@H](C)C4=CC(=O)C=C[C@]4(C)[C@@]3(F)[C@@H](O)C[C@@]21C` [Fluorometholone Acetate], for which the “secreted FVIII-Gluc luciferase Z-score” value was active: 2.72.
Regarding `O=C1CCc2ccc(OCCCCN3CCN(c4cccc(Cl)c4Cl)CC3)cc2N1` [Aripiprazole (Abilify)], the “secreted FVIII-Gluc luciferase Z-score” value was inactive: -1.31.
Consider `CCCC(=O)Nc1ccc(OCC(O)CNC(C)C)c(C(C)=O)c1` (centres undefined) [Acebutolol HCl], for which the “secreted FVIII-Gluc luciferase Z-score” value is inactive: -0.997.
As for `CCN(CC)C(=S)SSC(=S)N(CC)CC` [Disulfiram (Antabuse)], the “secreted FVIII-Gluc luciferase Z-score” value is inactive: -0.814.
Under `CN(C)CCN(Cc1ccccc1)c1ccccn1` [Tripelennamine HCl] stands inactive: -0.414; under `CC1=C(/C=C/C(C)=C/C=C/C(C)=C\C(=O)O)C(C)(C)CCC1` [Isotretinoin], active: 3.38; under `N#CC[C@H](C1CCCC1)n1cc(-c2ncnc3[nH]ccc23)cn1`, inactive: 1.69.
Under `CC(=O)SCC(Cc1ccccc1)C(=O)NCC(=O)OCc1ccccc1` (centres undefined) [Racecadotril (Acetorphan)] stands inactive: 1.3.
To `CCCCCCCCCCCC[N+](C)(C)CCOc1ccccc1` [Domiphen Bromide] belongs inactive: 0.143; to `CCCCc1oc2ccccc2c1C(=O)c1cc(I)c(OCCN(CC)CC)c(I)c1` [Amiodarone HCl], inactive: -1.64.
`Cc1cn(-c2cc(NC(=O)c3ccc(C)c(Nc4nccc(-c5cccnc5)n4)c3)cc(C(F)(F)F)c2)cn1` [Nilotinib (AMN-107)]: the “secreted FVIII-Gluc luciferase Z-score” value is inactive: -1.23.
Take `NC(=O)NO` [Hydroxyurea (Cytodrox)]: the “secreted FVIII-Gluc luciferase Z-score” value was inactive: 0.139.
